Source: the supplement of paper PMC10060354, “Discovery of a small molecule ligand of FRS2 that inhibits invasion and tumor growth” (Cellular Oncology, 2022)
Repeats are few or missing, and single values can be far off.

Chains of the proteins cited; added tags and fusions are not shown. Lines headed by an entry give the natural chain unless they say otherwise; changes in a name come on top.
UniProt P06756, whole entry: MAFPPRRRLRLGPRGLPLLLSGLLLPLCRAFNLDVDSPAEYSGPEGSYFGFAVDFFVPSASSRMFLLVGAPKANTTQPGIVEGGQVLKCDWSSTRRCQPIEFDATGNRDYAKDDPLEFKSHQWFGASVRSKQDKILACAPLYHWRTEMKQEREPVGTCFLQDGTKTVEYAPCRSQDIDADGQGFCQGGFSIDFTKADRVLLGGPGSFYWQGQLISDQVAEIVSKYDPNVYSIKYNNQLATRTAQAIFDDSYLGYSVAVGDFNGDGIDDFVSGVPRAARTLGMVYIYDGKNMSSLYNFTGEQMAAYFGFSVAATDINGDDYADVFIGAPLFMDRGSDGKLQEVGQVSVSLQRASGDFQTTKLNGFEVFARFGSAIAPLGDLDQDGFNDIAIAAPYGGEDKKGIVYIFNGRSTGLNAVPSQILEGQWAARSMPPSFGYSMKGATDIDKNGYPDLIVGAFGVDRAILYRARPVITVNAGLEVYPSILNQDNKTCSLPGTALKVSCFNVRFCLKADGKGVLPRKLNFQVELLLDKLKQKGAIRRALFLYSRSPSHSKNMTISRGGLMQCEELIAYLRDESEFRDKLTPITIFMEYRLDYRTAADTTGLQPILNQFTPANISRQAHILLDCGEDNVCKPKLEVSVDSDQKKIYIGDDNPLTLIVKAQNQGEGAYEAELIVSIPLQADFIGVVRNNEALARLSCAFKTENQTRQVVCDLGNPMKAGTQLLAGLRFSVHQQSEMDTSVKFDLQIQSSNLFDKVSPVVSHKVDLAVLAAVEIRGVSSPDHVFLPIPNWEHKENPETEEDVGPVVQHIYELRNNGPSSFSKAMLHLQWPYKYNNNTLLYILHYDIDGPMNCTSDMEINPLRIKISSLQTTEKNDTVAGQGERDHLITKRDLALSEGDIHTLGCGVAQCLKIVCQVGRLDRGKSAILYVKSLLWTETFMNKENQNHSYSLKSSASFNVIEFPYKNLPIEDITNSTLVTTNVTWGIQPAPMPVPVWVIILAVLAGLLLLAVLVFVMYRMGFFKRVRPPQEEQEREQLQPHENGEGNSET
UniProt Q5TGJ6: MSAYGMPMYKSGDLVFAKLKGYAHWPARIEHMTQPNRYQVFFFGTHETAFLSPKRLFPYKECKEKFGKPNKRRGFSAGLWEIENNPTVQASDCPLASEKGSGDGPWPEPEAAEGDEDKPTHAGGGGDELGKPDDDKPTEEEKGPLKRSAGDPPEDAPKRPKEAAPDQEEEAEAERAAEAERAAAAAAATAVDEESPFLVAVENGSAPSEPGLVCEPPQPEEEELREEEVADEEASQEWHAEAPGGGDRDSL
UniProt Q658Y4: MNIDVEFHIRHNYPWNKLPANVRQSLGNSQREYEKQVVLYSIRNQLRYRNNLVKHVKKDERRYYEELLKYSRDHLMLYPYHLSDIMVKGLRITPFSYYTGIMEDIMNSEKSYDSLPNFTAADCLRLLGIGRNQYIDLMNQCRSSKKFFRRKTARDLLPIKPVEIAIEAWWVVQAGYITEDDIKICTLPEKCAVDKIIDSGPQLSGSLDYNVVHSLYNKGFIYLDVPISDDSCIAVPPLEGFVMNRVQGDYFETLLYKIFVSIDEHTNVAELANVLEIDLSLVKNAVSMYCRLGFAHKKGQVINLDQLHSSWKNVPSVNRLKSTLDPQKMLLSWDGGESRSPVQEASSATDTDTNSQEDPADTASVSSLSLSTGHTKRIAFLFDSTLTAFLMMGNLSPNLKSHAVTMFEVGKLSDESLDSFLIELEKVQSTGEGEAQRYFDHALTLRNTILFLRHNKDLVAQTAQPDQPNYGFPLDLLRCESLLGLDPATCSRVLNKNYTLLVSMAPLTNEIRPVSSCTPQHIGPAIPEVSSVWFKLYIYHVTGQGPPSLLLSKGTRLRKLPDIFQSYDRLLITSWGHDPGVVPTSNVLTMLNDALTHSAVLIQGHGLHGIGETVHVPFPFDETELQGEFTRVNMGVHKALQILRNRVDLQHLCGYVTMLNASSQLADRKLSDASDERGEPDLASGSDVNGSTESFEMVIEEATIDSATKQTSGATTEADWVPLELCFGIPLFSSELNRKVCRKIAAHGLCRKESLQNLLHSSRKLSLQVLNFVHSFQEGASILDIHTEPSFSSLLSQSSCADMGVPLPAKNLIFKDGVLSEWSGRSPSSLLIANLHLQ
UniProt Q9GZT6: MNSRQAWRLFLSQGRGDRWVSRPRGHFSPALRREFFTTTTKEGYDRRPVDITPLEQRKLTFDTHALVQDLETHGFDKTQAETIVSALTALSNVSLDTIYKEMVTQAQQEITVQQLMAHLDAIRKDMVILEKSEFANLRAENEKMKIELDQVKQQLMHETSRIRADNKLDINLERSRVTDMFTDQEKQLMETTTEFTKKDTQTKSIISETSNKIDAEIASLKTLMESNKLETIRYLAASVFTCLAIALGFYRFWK
UniProt Q16533: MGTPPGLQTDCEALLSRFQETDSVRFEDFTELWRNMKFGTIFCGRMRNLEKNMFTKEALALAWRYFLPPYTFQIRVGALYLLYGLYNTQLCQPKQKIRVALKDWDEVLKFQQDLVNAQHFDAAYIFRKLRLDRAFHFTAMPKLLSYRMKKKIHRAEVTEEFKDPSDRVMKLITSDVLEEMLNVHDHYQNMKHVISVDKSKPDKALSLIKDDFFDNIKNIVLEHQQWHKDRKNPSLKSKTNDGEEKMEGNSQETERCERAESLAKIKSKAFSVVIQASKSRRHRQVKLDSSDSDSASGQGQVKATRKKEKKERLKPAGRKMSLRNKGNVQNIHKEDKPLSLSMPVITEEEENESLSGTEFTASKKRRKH
UniProt Q7LBC6: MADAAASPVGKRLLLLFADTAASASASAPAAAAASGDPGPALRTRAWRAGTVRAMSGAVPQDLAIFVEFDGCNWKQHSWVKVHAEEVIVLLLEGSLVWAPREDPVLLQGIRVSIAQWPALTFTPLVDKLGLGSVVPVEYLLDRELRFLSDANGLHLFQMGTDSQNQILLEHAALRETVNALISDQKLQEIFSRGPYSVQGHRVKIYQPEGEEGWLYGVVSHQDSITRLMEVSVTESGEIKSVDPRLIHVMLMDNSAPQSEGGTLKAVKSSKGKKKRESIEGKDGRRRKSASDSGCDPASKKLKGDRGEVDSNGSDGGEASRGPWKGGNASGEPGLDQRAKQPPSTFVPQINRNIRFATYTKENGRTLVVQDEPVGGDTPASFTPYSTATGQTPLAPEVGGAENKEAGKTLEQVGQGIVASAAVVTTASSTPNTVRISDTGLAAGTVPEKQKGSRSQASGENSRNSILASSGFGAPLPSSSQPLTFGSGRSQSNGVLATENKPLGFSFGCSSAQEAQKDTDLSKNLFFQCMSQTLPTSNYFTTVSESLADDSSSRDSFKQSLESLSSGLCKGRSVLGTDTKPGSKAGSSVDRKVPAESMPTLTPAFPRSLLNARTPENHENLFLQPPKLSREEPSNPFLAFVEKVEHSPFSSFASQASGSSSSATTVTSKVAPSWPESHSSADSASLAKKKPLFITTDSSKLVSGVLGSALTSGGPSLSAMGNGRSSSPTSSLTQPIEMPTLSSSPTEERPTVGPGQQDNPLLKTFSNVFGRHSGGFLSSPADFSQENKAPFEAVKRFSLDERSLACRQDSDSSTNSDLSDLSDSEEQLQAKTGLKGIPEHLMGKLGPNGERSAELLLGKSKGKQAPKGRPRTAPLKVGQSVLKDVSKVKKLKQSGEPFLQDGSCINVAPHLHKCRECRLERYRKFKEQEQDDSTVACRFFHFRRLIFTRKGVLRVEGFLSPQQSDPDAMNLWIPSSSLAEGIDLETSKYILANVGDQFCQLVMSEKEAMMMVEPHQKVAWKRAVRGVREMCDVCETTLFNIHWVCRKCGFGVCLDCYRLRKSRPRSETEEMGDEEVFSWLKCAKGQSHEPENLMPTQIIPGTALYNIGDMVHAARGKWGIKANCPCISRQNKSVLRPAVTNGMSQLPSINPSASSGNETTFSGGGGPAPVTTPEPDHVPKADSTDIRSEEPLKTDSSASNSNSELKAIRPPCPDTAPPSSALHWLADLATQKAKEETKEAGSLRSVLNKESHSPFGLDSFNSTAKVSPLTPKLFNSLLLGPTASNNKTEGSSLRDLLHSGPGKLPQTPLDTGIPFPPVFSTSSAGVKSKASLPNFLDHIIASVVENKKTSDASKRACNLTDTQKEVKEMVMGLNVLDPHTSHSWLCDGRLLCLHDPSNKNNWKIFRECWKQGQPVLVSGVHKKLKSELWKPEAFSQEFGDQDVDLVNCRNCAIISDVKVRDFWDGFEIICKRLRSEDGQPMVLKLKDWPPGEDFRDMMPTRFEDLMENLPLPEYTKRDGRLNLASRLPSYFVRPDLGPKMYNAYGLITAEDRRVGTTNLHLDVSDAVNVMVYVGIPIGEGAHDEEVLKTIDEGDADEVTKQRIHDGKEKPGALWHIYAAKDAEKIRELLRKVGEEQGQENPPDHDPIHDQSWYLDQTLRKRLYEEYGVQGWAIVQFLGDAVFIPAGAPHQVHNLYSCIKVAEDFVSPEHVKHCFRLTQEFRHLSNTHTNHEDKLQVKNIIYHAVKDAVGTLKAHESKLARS
UniProt Q15233: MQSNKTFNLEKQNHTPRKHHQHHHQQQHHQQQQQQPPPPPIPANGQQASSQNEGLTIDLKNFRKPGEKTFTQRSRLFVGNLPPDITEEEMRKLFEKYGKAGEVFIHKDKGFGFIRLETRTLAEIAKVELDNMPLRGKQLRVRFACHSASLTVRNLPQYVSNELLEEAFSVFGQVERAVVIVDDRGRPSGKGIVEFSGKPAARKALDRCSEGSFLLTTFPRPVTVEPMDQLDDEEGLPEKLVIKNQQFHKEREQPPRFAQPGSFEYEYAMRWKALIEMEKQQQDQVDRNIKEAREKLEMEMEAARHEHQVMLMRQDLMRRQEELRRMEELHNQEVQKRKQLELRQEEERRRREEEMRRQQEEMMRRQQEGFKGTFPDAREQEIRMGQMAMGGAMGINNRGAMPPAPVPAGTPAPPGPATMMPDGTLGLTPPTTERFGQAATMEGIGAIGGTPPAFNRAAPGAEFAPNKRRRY
UniProt Q12893: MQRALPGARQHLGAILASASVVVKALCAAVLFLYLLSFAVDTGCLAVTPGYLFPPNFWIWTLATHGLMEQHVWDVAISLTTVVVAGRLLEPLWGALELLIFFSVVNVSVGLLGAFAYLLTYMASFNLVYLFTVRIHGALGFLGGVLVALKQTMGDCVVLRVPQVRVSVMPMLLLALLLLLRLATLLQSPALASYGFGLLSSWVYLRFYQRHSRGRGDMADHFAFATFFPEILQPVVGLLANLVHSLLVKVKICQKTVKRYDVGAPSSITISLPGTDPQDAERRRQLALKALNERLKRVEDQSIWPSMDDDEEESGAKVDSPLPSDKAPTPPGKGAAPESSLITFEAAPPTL
UniProt Q13185: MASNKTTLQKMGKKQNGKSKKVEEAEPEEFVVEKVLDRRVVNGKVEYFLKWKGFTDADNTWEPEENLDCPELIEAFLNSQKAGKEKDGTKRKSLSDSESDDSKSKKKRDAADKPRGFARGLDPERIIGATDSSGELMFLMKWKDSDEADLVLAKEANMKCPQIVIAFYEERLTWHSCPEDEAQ
UniProt Q9Y4Y9: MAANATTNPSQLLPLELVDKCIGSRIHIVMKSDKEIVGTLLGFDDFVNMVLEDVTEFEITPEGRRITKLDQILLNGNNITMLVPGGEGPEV
UniProt P52756, whole entry: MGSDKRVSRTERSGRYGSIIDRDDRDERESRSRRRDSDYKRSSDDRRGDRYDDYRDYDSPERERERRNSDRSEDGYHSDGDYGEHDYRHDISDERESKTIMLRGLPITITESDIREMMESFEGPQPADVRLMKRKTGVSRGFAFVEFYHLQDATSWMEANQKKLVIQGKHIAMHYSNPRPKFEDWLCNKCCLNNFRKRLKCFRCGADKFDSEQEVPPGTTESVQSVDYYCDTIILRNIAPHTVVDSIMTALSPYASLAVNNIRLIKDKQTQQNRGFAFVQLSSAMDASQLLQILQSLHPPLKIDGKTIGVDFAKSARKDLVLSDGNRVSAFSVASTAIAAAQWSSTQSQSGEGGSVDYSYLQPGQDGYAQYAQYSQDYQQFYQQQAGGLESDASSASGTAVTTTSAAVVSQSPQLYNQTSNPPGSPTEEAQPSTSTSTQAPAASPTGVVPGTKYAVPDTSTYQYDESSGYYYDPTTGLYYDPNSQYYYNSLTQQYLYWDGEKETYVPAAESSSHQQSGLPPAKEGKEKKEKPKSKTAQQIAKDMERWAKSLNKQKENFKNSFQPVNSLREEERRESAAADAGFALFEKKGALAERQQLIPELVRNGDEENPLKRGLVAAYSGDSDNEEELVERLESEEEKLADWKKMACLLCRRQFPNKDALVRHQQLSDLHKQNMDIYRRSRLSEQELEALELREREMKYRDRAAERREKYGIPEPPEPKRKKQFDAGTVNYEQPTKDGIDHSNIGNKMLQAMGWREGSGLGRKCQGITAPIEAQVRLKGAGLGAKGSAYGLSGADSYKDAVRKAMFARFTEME
UniProt Q96FQ6: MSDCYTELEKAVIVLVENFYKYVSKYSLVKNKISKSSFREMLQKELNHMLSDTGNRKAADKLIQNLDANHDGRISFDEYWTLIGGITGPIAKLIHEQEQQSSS

Compound: [O-][N+](C(C1=C(C(O)=C2)NC(C(C=C3)=CC=C3Cl)C4C1C=CC4)=C2Cl)=O
Assay: melting temperature shift (compound 7 minus DMSO); higher = compound stabilises the protein
Conditions: 10 µM
Procedure: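 Thermal proteome profiling (TMT mass spectrometry) in intact DAOY medulloblastoma cells or DAOY lysates treated with 10 µM compound 7 or DMSO, heated at 10 temperatures from 40.5 to 73.8 °C for 3 min. Melting curves were fitted with the Bioconductor TPP package, and the melting point difference between compound and vehicle is reported per protein (single curve per condition).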

[1] = system: DAOY cell lysate, treatment time: 20 min, 4 °C
[2] = system: intact DAOY cells, treatment time: 90 min, 37 °C

Target | melting temperature shift [1] [°C] | melting temperature shift [2] [°C]
SURF1 (UniProt Q15526) | 0.663 | -0.427
ITGAV (UniProt P06756) | 2.71 | –
TSC22D1 (UniProt Q15714) | – | 2.5
UniProt Q5TGJ6 | -1.26 | –
NUP62 (UniProt P37198) | 0.0977 | 1.7
ZYG11B (UniProt Q9C0D3) | -1.27 | -0.665
BRD7 (UniProt Q9NPI1) | 0.0201 | -2.55
HAX1 (UniProt O00165) | – | 0.424
HERC4 (UniProt Q5GLZ8) | -0.339 | -0.537
ATP6V0A2 (UniProt Q9Y487) | -0.282 | –
NCAPH2 (UniProt Q6IBW4) | 1.78 | -1.5
AASDHPPT (UniProt Q9NRN7) | -0.37 | -0.0584
UniProt Q8N5F7 | 1.16 | –
KTI12 (UniProt Q96EK9) | 0.707 | -1.18
FAM91A1 (UniProt Q658Y4) | -0.391 | 0.416
LETM1 (UniProt O95202) | 1.24 | 0.0445
FAM83G (UniProt A6ND36) | 0.628 | 2.12
MIA3 (UniProt Q5JRA6) | 0.836 | -0.5
DICER1 (UniProt Q9UPY3) | -0.182 | -0.479

Target | melting temperature shift [1] [°C] | melting temperature shift [2] [°C]
GPATCH2 (UniProt Q9NW75) | -3.5 | -0.341
HSDL2 (UniProt Q6YN16) | 0.471 | -0.397
UniProt Q6ZTA4 | 3.23 | –
UniProt P57735 | – | -2.41
CCDC90B (UniProt Q9GZT6) | 1.99 | -0.527
EDRF1 (UniProt Q3B7T1) | 0.0445 | -0.727
RPL4 (UniProt P36578) | 0.789 | -0.508
SNAPC1 (UniProt Q16533) | – | -0.912
KDM3B (UniProt Q7LBC6) | -1.31 | 0.0279
UniProt P57723 | – | -2.02
AK6 (UniProt Q9Y3D8) | -1.32 | 1.01
RBM12 (UniProt Q9NTZ6) | -0.071 | -1.28
NONO (UniProt Q15233) | 0.77 | 0.467
GRPEL2 (UniProt Q8TAA5) | -0.947 | -0.709
OSBPL9 (UniProt Q96SU4) | -1.46 | 1.18
TMEM115 (UniProt Q12893) | -0.453 | -3.04
CBX3 (UniProt Q13185) | -0.0764 | 0.42
ARHGAP29 (UniProt Q52LW3) | -1.25 | -0.773
HEXB (UniProt P07686) | -0.288 | -1.31

Random excerpt: 3 entries already listed
Target | melting temperature shift [1] [°C] | melting temperature shift [2] [°C]
BRD7 (UniProt Q9NPI1) | 0.0201 | -2.55
NUP62 (UniProt P37198) | 0.0977 | 1.7
HERC4 (UniProt Q5GLZ8) | -0.339 | -0.537

Following part

Target | melting temperature shift [1] [°C] | melting temperature shift [2] [°C]
AAMP (UniProt Q13685) | -0.701 | 1.39
SH3GL1 (UniProt Q99961) | -1.28 | -0.133
LSM5 (UniProt Q9Y4Y9) | -1.24 | 0.537
DCAKD (UniProt Q8WVC6) | – | -2.81
HDAC1 (UniProt Q13547) | 1.15 | -0.649
RTN4 (UniProt Q9NQC3) | -0.333 | –
UniProt Q96J87 | – | 0.0268
ARHGAP17 (UniProt Q68EM7) | -0.651 | 0.748
NUDT1 (UniProt P36639) | -0.6 | 0.302
CFAP36 (UniProt Q96G28) | -0.967 | –
EZH2 (UniProt Q15910) | -1.68 | –
RPS26 (UniProt P62854) | 0.321 | -0.528
PIK3C3 (UniProt Q8NEB9) | – | -0.586
UniProt P52756 | -0.927 | 0.834
ARSA (UniProt P15289) | -1.08 | –
S100A16 (UniProt Q96FQ6) | 0.819 | 2.03
UniProt Q9NX07 | 0.185 | –
CAMK1D (UniProt Q8IU85) | -0.0187 | -0.58
CTU2 (UniProt Q2VPK5) | -0.683 | -0.893
